NP40-soluble protein abundance data for 21 targets are collected here from the supplement of paper PMC6411743.

By UniProt entry, the sequences of proteins in these tests, tags left out. Where a name states a change or a piece, a line headed by the entry shows the natural chain unless it says otherwise.
UniProt P30566: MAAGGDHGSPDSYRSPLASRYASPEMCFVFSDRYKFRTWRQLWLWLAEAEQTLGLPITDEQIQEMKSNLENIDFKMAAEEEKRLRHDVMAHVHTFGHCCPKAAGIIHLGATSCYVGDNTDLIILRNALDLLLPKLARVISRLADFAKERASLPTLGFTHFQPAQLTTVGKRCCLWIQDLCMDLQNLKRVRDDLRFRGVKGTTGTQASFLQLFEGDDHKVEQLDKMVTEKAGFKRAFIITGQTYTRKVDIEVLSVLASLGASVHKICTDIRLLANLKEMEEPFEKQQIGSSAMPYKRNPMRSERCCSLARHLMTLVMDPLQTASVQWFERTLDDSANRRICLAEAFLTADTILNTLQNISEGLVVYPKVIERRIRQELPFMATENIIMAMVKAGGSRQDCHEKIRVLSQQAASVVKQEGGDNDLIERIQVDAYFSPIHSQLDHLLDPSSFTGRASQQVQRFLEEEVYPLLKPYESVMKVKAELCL
UniProt Q8NEL9: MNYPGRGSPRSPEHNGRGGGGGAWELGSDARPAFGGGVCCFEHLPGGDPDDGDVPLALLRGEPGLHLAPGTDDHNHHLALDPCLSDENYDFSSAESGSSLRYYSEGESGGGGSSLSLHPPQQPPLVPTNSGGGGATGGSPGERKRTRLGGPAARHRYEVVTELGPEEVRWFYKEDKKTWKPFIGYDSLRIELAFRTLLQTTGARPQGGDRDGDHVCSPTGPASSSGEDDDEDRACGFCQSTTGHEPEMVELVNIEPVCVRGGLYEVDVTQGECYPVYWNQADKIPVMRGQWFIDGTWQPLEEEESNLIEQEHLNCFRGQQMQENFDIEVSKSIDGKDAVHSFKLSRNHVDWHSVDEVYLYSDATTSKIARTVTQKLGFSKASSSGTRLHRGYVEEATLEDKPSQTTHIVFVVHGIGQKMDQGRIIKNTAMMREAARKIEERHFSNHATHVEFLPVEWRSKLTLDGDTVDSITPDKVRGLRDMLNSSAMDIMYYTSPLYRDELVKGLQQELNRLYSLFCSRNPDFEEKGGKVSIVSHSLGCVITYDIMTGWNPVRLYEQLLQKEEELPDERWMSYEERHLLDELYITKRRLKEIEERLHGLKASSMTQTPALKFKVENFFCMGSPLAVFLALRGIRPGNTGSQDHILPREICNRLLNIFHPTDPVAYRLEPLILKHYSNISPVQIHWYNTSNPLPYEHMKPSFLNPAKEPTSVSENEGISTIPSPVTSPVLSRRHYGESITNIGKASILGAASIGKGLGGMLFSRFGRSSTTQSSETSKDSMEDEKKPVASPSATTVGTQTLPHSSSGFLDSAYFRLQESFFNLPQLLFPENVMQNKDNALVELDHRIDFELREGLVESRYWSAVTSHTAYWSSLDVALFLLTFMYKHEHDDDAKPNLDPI
UniProt Q03518, whole entry: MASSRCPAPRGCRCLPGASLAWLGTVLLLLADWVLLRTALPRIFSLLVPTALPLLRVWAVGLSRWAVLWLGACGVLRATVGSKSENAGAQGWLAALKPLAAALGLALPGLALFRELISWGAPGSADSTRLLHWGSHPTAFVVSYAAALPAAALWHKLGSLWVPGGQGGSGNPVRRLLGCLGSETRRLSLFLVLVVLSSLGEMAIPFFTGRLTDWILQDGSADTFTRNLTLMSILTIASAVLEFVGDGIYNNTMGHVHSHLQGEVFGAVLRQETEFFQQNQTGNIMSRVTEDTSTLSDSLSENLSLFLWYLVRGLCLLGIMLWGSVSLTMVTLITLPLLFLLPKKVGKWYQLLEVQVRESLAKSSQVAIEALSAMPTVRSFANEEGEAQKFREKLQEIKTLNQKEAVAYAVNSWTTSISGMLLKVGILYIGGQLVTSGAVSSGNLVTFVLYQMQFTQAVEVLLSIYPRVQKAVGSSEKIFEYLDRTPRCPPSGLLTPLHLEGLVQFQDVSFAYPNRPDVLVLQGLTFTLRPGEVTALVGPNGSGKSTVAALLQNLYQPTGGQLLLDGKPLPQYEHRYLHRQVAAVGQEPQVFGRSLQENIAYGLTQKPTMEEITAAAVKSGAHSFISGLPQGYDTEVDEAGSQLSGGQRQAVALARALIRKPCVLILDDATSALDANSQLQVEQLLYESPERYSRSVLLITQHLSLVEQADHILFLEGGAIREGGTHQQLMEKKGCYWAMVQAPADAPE
UniProt Q92614: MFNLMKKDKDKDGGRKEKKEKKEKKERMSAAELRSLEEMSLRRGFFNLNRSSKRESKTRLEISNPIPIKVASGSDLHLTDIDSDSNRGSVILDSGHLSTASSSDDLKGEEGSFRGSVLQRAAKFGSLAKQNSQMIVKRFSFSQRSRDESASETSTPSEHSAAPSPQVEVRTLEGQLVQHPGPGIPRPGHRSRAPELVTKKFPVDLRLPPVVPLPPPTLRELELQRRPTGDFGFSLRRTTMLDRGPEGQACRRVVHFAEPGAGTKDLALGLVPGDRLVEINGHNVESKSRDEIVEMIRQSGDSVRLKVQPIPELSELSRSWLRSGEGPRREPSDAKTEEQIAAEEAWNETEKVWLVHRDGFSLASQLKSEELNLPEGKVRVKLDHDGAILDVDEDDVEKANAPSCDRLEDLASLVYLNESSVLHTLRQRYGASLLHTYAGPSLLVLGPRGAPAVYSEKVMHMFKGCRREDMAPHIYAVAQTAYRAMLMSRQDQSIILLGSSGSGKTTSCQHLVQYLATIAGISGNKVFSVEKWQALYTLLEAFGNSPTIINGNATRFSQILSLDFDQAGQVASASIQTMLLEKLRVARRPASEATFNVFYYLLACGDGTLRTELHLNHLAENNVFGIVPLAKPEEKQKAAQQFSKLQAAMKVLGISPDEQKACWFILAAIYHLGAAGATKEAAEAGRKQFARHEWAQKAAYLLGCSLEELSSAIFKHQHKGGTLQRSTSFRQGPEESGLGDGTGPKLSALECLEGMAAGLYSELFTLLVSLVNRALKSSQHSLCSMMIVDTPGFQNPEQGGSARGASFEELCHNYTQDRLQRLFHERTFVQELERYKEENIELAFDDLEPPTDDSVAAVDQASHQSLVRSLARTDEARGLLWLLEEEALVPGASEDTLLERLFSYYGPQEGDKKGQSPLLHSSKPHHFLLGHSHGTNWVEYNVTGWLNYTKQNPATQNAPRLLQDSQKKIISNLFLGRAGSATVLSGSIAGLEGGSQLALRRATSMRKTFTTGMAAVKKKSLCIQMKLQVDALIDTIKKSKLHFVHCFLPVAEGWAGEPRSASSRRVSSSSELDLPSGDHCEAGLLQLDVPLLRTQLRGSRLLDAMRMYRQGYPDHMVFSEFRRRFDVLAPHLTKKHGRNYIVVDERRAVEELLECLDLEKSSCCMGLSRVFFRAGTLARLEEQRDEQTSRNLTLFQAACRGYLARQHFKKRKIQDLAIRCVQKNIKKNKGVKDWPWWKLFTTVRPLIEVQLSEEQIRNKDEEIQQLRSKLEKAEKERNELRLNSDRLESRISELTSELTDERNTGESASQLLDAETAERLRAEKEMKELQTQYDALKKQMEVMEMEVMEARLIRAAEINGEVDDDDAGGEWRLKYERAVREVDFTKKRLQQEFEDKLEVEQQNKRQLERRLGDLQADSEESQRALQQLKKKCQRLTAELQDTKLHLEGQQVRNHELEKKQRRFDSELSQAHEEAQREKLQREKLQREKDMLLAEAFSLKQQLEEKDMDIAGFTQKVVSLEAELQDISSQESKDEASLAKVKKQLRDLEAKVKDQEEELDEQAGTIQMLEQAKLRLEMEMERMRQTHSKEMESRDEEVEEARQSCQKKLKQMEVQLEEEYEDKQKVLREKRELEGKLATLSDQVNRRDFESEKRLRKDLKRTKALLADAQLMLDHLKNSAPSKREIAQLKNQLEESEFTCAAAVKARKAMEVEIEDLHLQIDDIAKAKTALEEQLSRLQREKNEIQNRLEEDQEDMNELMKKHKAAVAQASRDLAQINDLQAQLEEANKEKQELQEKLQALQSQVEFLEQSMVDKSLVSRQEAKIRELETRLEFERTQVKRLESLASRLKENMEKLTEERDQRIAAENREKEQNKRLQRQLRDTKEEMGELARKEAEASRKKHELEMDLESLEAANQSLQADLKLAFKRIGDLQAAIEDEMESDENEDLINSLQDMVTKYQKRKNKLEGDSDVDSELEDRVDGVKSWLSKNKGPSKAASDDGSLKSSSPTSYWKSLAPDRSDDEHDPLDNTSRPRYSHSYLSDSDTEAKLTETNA
UniProt Q8WX92, whole entry: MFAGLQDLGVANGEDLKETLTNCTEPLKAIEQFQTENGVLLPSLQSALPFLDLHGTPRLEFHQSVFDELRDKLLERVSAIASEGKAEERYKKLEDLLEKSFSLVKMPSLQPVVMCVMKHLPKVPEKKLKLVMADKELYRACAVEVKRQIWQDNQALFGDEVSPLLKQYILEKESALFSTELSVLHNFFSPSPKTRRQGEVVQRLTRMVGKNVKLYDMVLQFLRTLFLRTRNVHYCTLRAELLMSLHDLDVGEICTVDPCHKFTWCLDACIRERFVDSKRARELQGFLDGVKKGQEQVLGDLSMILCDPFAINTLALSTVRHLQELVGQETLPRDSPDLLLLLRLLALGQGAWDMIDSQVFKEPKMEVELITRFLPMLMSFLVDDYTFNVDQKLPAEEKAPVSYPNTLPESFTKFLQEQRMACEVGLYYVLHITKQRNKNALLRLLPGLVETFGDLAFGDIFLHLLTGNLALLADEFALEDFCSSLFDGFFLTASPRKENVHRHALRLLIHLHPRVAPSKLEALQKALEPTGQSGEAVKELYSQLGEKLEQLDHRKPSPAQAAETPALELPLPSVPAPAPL
UniProt Q9UJZ1: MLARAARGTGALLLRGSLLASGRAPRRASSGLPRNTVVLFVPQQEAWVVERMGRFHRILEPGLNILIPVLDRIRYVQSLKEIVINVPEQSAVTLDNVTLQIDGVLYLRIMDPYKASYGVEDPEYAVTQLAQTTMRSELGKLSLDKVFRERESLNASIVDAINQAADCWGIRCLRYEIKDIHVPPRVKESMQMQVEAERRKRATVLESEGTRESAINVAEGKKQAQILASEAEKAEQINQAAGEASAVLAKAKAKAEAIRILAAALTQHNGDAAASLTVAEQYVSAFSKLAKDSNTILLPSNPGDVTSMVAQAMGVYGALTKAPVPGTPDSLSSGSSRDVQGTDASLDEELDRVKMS
UniProt Q9UHJ6: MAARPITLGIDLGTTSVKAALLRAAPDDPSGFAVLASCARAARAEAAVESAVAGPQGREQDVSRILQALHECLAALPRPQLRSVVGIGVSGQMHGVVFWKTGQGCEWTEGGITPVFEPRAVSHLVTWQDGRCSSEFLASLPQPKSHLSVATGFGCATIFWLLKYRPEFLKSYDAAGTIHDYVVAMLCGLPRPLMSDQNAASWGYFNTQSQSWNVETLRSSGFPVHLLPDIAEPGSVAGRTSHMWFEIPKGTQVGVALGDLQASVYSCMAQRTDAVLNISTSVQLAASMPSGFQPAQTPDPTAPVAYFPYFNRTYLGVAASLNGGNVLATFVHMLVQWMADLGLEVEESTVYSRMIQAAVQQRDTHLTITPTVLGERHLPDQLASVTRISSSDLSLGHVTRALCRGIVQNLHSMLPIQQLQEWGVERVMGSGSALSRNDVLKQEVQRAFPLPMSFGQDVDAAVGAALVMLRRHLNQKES
UniProt P04062: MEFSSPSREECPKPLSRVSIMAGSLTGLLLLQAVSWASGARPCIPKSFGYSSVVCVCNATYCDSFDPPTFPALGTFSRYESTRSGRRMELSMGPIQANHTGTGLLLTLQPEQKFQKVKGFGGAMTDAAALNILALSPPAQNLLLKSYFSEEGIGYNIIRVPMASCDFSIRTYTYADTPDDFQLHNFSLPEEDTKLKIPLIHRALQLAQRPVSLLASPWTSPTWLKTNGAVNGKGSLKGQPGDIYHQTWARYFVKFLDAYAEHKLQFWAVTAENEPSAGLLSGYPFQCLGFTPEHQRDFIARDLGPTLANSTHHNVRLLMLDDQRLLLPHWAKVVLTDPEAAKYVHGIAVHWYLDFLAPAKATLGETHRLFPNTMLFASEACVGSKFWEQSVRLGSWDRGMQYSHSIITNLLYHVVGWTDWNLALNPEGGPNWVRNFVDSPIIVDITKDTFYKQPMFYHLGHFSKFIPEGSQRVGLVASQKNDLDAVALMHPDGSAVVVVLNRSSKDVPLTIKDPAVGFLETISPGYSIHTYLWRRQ
UniProt A5PLN9: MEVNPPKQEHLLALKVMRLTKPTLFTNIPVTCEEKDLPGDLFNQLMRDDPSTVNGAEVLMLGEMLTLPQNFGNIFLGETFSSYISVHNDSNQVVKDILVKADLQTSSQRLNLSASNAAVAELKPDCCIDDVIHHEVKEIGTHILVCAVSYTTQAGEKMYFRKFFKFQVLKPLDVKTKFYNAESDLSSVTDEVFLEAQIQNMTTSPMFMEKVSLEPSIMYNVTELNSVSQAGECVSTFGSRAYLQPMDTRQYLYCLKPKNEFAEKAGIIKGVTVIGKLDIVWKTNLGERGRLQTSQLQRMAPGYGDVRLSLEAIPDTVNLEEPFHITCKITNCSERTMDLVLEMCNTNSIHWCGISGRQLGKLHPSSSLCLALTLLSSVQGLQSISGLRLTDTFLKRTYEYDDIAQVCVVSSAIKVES

± gives the standard deviation of the averaged measurements. This is one part of the list.

Compound in this assay: Nc1nc2c(ncn2[C@@H]2O[C@H](COP(=O)(O)OP(=O)(O)OP(=O)(O)O)[C@@H](O)[C@H]2O)c(=O)[nH]1 [guanosine triphosphate]
In words: NP40-soluble protein abundance relative to vehicle (solubility fold change) (ratio); higher = more soluble protein in presence of GTP. The conditions noted are these: concentration: 10mM. In outline: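 Data come from three independent experiments in which Dounce-homogenised Jurkat crude lysate was treated at eight concentrations from 0.1 to 10 mM. Treatment ran 10 min at room temperature and then 3 min at 37 °C, after which 0.8% NP40 and benzonase were added for 60 min at 4 °C before ultracentrifugation. The supernatant underwent TMT labelling and LC-MS/MS, and vsn-normalised intensities were expressed as fold change against the detergent-processed vehicle in each replicate.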
As for “A6NCC9 and related entries (UniProt Q9Y5U2)”, the NP40-soluble protein abundance was 1.22 ± 0.11. The same measure for A0A096LPA2|P30566 (UniProt P30566): 0.862 ± 0.046; for “A0A0A0MS45|J3KNI1 and related entries (UniProt Q9H9E3)”: 0.971 ± 0.055; for A0A0C4DFX9|Q9H3P2 (UniProt Q9H3P2): 0.995 ± 0.038. The same measure for “A0A087X0H7|Q8NEL9 and related entries (UniProt Q8NEL9)”: 0.879 ± 0.036.

Turning to A0A140T9T7|Q03518 (UniProt Q03518), the NP40-soluble protein abundance came to 1.05 ± 0.088.

Regarding “A0A0D9SFK2|Q92614 and related entries (UniProt Q92614)”, the NP40-soluble protein abundance came to 1.03 ± 0.1. The same measure for UniProt A3KMH1 and related entries: 0.952 ± 0.089.

For the target “A0A0A0MSQ0|H7C4N2 and related entries (UniProt P13797)”, the NP40-soluble protein abundance was 0.911 ± 0.09. For the target A0A0X1KG71|Q8WX92 (UniProt Q8WX92), the NP40-soluble protein abundance is 0.946 ± 0.02. As to “A0A0C4DGS5|Q08379 and related entries (UniProt Q08379)”, the NP40-soluble protein abundance amounted to 1.05 ± 0.065. The same measure for “A0A087WZ97|A0A087WZK6|A0A087X2C2|Q5T7M9 (UniProt Q5T7M9)”: 0.983 ± 0.04; for A0A087WYB4|Q9UJZ1 (UniProt Q9UJZ1): 1.05 ± 0.13; for “A0A087X0R0|F5H6S1 and related entries (UniProt O15550)”: 1.1 ± 0.1. Next, A0A0C4DGS1|P39656 (UniProt P39656): 0.876 ± 0.035. Take “A0A087WXC5|E7ESZ7 and related entries (UniProt O95299)”: the NP40-soluble protein abundance stood at 0.988 ± 0.053. The same measure for A0A0B4J2A0|Q9UHJ6 (UniProt Q9UHJ6): 0.924 ± 0.1; for A0A0C4DGH6|A0JNW5 (UniProt A0JNW5): 0.924 ± 0.18; for “A0A0A0MQT4|Q5QP82 and related entries (UniProt Q5QP82)”: 1.01 ± 0.0013. Regarding “A0A0G2JLB3|A0A0G2JNZ5|P04062 and related entries (UniProt P04062)”, the NP40-soluble protein abundance stood at 0.829 ± 0.1. With UniProt A5PLN9 and related entries, the NP40-soluble protein abundance worked out at 0.904 ± 0.014.
